# According to PubChem BioAssay AID2685 (National Center for Advancing Translational Sciences (NCATS), 2010):
# Some of the results follow. Further columns of the screen follow, without active or inactive calls. Compounds called inactive in the main read-out are mostly missing here. Potencies come from curve fits of mixed quality, noted in brackets.
# Test: qHTS Assay for Lipid Storage Modulators in Drosophila S3 Cells;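 for cell number change: cells counted by Cell Tracker Red CMTPX staining in the red channel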
# Conditions: BODIPY lipid droplet fluorescence, 18-24 h; for cell number change: measured here: cell count max response, cells fed with added oleic acid
# How it was run: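 Laser-scanning cytometry quantifies lipid droplet accumulation (500–530 nm total intensity; droplet/cell object ratio) in oleic acid-fed (400 uM added) Drosophila S3 cells treated with a concentration series. 20 uM Triacsin C defined 100% inhibition.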
# [1] = measured here: lipid fluorescence (Fed channel) AC50, cells fed with added oleic acid
# [2] = measured here: cell number channel AC50, cells fed with added oleic acid
Structure (SMILES),cell number change,AC50 [1],AC50 [2]
O=C(OCC(=O)c1ccc[nH]1)c1ccc(Cl)nc1,6.73%,"4.61 µM [rising, single point]",
CCc1ccc(NC(=O)CN(CC(=O)Nc2ccc(CC)cc2)CC(C)O)cc1 (centres undefined),-22.2%,,
C=C(C)COc1ccc(-c2n[nH]c(C)c2-c2ccc(OC)c(OC)c2)c(O)c1,-62.5%,,"20.6 µM [falling, single point]"
CN(C)c1ccc(C2OC(=O)C3(CCCC3)C(=O)C2(C)C)cc1 (centres undefined),-46.2%,"29.1 µM [falling, single point]","16.4 µM [falling, single point]"
Cc1ccc(S(=O)(=O)N2[C@@H](c3ccc(Cl)cc3)C(C(=O)O)=CC[C@H]2c2cccs2)cc1,1.58%,"1.84 µM [rising, full curve, poor fit]",
O=C(NCCOc1ccc(Cl)cc1)C1CC(=O)N(c2ccc(F)cc2)C1 (centres undefined),-3.31%,"0.0184 µM [rising, full curve, poor fit]",
c1nnc2c3c4c(sc3ncn12)CCCC4,-14.5%,"29.1 µM [falling, single point]",
COC(=O)[C@@]1(Cc2ccc(OC)cc2)[C@H]2c3cc(C(=O)N(C)C)n(CCSCCO)c3C[C@H]2CN1C(=O)c1ccccc1,21.2%,"29.1 µM [rising, single point]",
O=C1CCN(Cc2ccccc2)S(=O)(=O)c2ccc(C(F)(F)F)cc21,1.68%,"6.51 µM [rising, single point]",
O=P1(O)C=C(c2ccccc2)OC(c2ccccc2)=C1,14.9%,,
Cc1cc(C)nc(S/C=C/C(=O)c2ccc(F)cc2)n1,-22.5%,"0.259 µM [falling, full curve]","0.731 µM [falling, full curve, poor fit]"
Cc1ccc(NC(=S)N(CCCN2CCCC2)Cc2cccn2Cc2ccc(Cl)cc2)cc1Cl,-79.8%,"18.4 µM [falling, partial curve]","20.6 µM [falling, partial curve]"
Cc1ccccc1NC(C)C(=O)N/N=C/c1c[nH]c2ccccc12 (centres undefined),,"0.291 µM [rising, full curve]","0.461 µM [rising, partial curve, poor fit]"
O=C(Nn1cnnc1)c1ccc(F)c(S(=O)(=O)N2CCCCC2)c1,-18%,"1.03 µM [falling, partial curve, poor fit]",
Fc1ccc(CSc2nnc(-c3cccnc3)o2)cc1,3.84%,"0.731 µM [falling, single point]",
O=c1[nH]c2ccc(NC(=S)Nc3ccc(Cl)cc3Cl)cc2[nH]1,-48.9%,"29.1 µM [falling, single point]","20.6 µM [falling, single point]"
C=CCNC(=O)c1cccc(Br)c1,,,"6.51 µM [falling, single point]"
CCN(CC)c1ccc(NC(=O)CSc2nc(C)cc(=O)[nH]2)cc1,54.3%,,"25.9 µM [rising, single point]"
COc1cccc(-c2nc(CS(=O)CC(=O)NCCc3ccccc3)c(C)o2)c1 (centres undefined),12.5%,,

Structure (SMILES),cell number change,AC50 [1],AC50 [2]
Cc1ccc(C(=O)Nc2nc(-c3cc(Cl)sc3Cl)cs2)cc1,-5.6%,"0.411 µM [falling, partial curve, poor fit]",
CC1(C)Cc2nc(NCCN3CCOCC3)c(C#N)cc2CO1,-5.82%,"16.4 µM [falling, partial curve, poor fit]",
O=S(=O)(/N=C(/Nc1ccccn1)c1ccccc1)c1ccc(F)cc1,-26%,"6.51 µM [falling, single point]",
O=P(O)(Cc1ccccc1)Cc1ccccc1,28.1%,,
O=C(C1=NNCC1c1ccc(Cl)cc1)C1CO1 (centres undefined),20.9%,"1.46 µM [falling, full curve, poor fit]","6.51 µM [rising, single point]"
COc1ccc(CCNC(=O)C23CCC(C)(C(=O)O2)C3(C)C)cc1OC (centres undefined),24.5%,"29.1 µM [falling, single point]",
O=S1(=O)c2ccccc2N=NN1Cc1cc(Cl)cc(Cl)c1,-1.07%,"6.51 µM [falling, single point]",
COc1ccc(C(=O)C(C)OC(=O)CCN2C(=O)C3CC=CCC3C2=O)cc1 (centres undefined),-3.55%,"0.116 µM [rising, full curve, poor fit]",
COc1cc(C(=O)NCC2CCCN2S(=O)(=O)c2cccs2)cc(OC)c1OC (centres undefined),24.6%,,
CCOC(=O)N1CCN(C(=O)CCS(=O)(=O)c2ccc3c(c2)CC(C)N3C(=O)CC)CC1 (centres undefined),-7.22%,"29.1 µM [rising, single point]",
Cc1nn2c3ccccc3nc2c2ccccc12,,,"0.116 µM [falling, full curve, poor fit]"
C=CCc1c(C)nc(SC)nc1Nc1ccc(C)cc1,12.2%,"0.00461 µM [rising, full curve, poor fit]","0.082 µM [rising, full curve]"
O=C(c1ccc(Cl)c(Cl)c1)c1cnc(Nc2ccccc2)s1,-32.4%,,
Cc1nn(-c2ccccc2)c(Cl)c1/C=C(\CC(=O)O)c1nc2ccccc2s1,59.1%,,"14.6 µM [rising, partial curve]"
CCOc1ccc(NC(=O)CC(C)S(=O)(=O)c2ccc3c(c2)NC(=O)CO3)cc1 (centres undefined),-13.5%,"0.00461 µM [falling, full curve, poor fit]",
NC(=S)N/N=C/c1ccc(C(F)(F)F)cc1,16.7%,"8.2 µM [falling, partial curve, poor fit]",
O=C(O)c1ccc(NS(=O)(=O)c2ccc3nnn(O)c3c2)cc1,-28%,"29.1 µM [falling, single point]","4.61 µM [falling, full curve, poor fit]"
CC1CC(C)CN(S(=O)(=O)c2ccc(C(=O)NCCCn3ccnc3)cc2)C1 (centres undefined),-35.9%,"16.4 µM [falling, partial curve]","23.1 µM [falling, partial curve]"

# An excerpt of these results, with bars between the fields:
Structure (SMILES) | cell number change | AC50 [1] | AC50 [2]
O=S1(=O)c2ccccc2N=NN1Cc1cc(Cl)cc(Cl)c1 | -1.07% | 6.51 µM [falling, single point] | 
COc1ccc(C(=O)C(C)OC(=O)CCN2C(=O)C3CC=CCC3C2=O)cc1 (centres undefined) | -3.55% | 0.116 µM [rising, full curve, poor fit] | 
